Our source for the survivor count and T/C values is PubChem BioAssay AID252 (DTP/NCI, 2004).

The list does not hold the whole screen: it gathers tests that were run many times, whatever their T/C, doses with no T/C, and many T/C values between a quarter and a half above the control. Further doses and runs are listed elsewhere. T/C: endpoint of the treated group in % of that of the vehicle group. Some entries give survivors of the animals treated and no T/C: the source files T/C as zero there, which appears to mark a toxic dose or a test without result, not a measured value. Some survivor counts are full or nearly so, which does not show that the dose was tolerated: survival well below the control is almost never listed, so the zero probably covers shortened survival too. Counts of survivors are from the toxicity check (mostly the fifth day) where no day follows; animals may have died later. Schedule codes are those of the source, read here as Q, the interval in days (D) or hours (H), X, the number of doses. Some schedule codes hold Z or #, which are not explained here. Some structures stand for samples that the source files as different forms (salt, stereo form or complex); doses refer to the form tested. Brackets with × count equal records among those shown. Some entries hold several experiments; their values stand side by side, smallest first. For survival time, this PubChem deposit counts one and a half times the control or more as active, and values a quarter to a half above the control carry no call in these data; other NCI protocols may use other cut-offs. Some T/C values carry the count of animals alive at the toxicity check (mostly the fifth day); without a count, all were alive then.

The assay concerns BDF1 mice, intracerebral L1210 leukemia, survival T/C. Briefly: NCI In Vivo Anticancer Drug Screen. Data for tumor model L1210 Leukemia (intracerebral) in B6D2F1 (BDF1) mice. The settings on record: higher T/C = longer survival. Summed up: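 Readout is the T/C ratio: survival of compound-treated animals over that of vehicle-treated controls, in mice bearing transplantable tumour.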

Setting [1] is: T/C endpoint: mean survival time, dose: 5.0 mg/kg/injection, schedule: Q01DX009 (ip), vehicle: water.

As for `CN1CCN(CCCN2c3ccccc3Sc3ccc(Cl)cc32)CC1`, the survivor count (T/C endpoint: mean survival time, dose: 37.5 mg/kg/injection, schedule: Q01DX009 (ip), vehicle: saline) was 2 of 6.
As to `CC(=O)OCC1OC(n2cnc3c(=S)nc(N)[nH]c32)C(OC(C)=O)C1OC(C)=O` (configuration not stated), the T/C by setting is: (T/C endpoint: mean survival time, dose: 5.0 mg/kg/injection, schedule: Q01DX Z (ip), vehicle: other) 130 % of control; (T/C endpoint: mean survival time, dose: 10.0 mg/kg/injection, schedule: Q01DX Z (ip), vehicle: other) 140 % of control; (T/C endpoint: mean survival time, dose: 20.0 mg/kg/injection, schedule: Q01DX Z (ip), vehicle: other) 145 % of control.
For `O=NN(CCCl)C(=O)Nc1ccccc1`, the survivor count (T/C endpoint: mean survival time, dose: 144.0 mg/kg/injection, schedule: Q01DX001 (ip), vehicle: carboxymethylcellulose (CMC)) is 0 of 10 and the survivor count (T/C endpoint: mean survival time, dose: 288.0 mg/kg/injection, schedule: Q01DX001 (ip), vehicle: carboxymethylcellulose (CMC)) was 0 of 10.
For the compound `O=C1C=C(N2CC2)C(=O)C(N2CC2)=C1N1CC1`, the T/C (T/C endpoint: mean survival time, dose: 0.1 mg/kg/injection, schedule: Q01DX009 (ip), vehicle: saline) was 126 % of control. In addition, for the setting “T/C endpoint: mean survival time, dose: 0.2 mg/kg/injection, schedule: Q01DX009 (ip), vehicle: saline”, the survivor count is 6 of 6.
`CCOC1=C(N2CC2)C(=O)C(OCC)=C(N2CC2)C1=O`: the T/C runs as follows: (T/C endpoint: mean survival time, dose: 2.0 mg/kg/injection, schedule: Q01DX009 (ip), vehicle: saline) 133 % of control; (T/C endpoint: mean survival time, dose: 4.0 mg/kg/injection, schedule: Q01DX009 (ip), vehicle: saline) 143 % of control. Moreover, the survivor count (T/C endpoint: mean survival time, dose: 8.0 mg/kg/injection, schedule: Q01DX009 (ip), vehicle: saline) was 6 of 6.
In the case of `N#CCCN(N=O)C(=O)Nc1ccccc1`, the survivor count runs as follows: (T/C endpoint: mean survival time, dose: 600.0 mg/kg/injection, schedule: Q01DX001 (ip), vehicle: carboxymethylcellulose (CMC)) 0 of 10; (T/C endpoint: mean survival time, dose: 1200.0 mg/kg/injection, schedule: Q01DX001 (ip), vehicle: carboxymethylcellulose (CMC)) 0 of 10; (T/C endpoint: mean survival time, dose: 2400.0 mg/kg/injection, schedule: Q01DX001 (ip), vehicle: carboxymethylcellulose (CMC)) 0 of 10.
`COC(=O)c1ccccc1N=NN(C)C`: the survivor count (T/C endpoint: median survival time, dose: 40.0 mg/kg/injection, schedule: Q01DX009 (ip), vehicle: saline with Tween-80) was 0 of 10; the survivor count (T/C endpoint: median survival time, dose: 80.0 mg/kg/injection, schedule: Q01DX009 (ip), vehicle: saline with Tween-80) was 0 of 10; the survivor count (T/C endpoint: median survival time, dose: 160.0 mg/kg/injection, schedule: Q01DX009 (ip), vehicle: saline with Tween-80) is reported as 0 of 10.
Regarding `COc1cc(NS(C)(=O)=O)ccc1Nc1c2ccccc2nc2ccccc12`, the survivor count (T/C endpoint: mean survival time, dose: 4.0 mg/kg/injection, schedule: Q01DX009 (ip), vehicle: other) was 10 of 10; the survivor count under setting [1] was 7 of 8 (2×); the survivor count (T/C endpoint: mean survival time, dose: 8.0 mg/kg/injection, schedule: Q01DX009 (ip), vehicle: other) is given as 10 of 10; the survivor count (T/C endpoint: mean survival time, dose: 8.4 mg/kg/injection, schedule: Q01DX009 (ip), vehicle: water) was 6 of 8 (2×); the survivor count (T/C endpoint: mean survival time, dose: 10.0 mg/kg/injection, schedule: Q01DX009 (ip), vehicle: saline) is 10 of 10; the survivor count (T/C endpoint: mean survival time, dose: 14.0 mg/kg/injection, schedule: Q01DX009 (ip), vehicle: water) was 4 of 8 (2×). The survivor count was 10 of 10 (T/C endpoint: mean survival time, dose: 20.0 mg/kg/injection, schedule: Q01DX009 (ip), vehicle: saline); 1 of 8 (2×) (T/C endpoint: mean survival time, dose: 23.0 mg/kg/injection, schedule: Q01DX009 (ip), vehicle: water); 1 of 8 (2×) (T/C endpoint: mean survival time, dose: 39.0 mg/kg/injection, schedule: Q01DX009 (ip), vehicle: water).
`C1CN1c1nc(N2CC2)nc(N2CC2)n1`: the T/C reads like this: (T/C endpoint: mean survival time, dose: 0.37 mg/kg/injection, schedule: Q01DX Z (ip), vehicle: saline) 136 % of control; (T/C endpoint: mean survival time, dose: 0.75 mg/kg/injection, schedule: Q01DX Z (ip), vehicle: saline) 126 % of control; (T/C endpoint: mean survival time, dose: 1.4 mg/kg/injection, schedule: Q01DX001 (ip), vehicle: saline) 127 % of control. Also, the survivor count is recorded as 6 of 6 (T/C endpoint: mean survival time, dose: 2.0 mg/kg/injection, schedule: Q01DX Z (ip), vehicle: saline); 3 of 6 (T/C endpoint: mean survival time, dose: 2.5 mg/kg/injection, schedule: Q01DX Z (ip), vehicle: saline); 3 of 6 (T/C endpoint: mean survival time, dose: 3.0 mg/kg/injection, schedule: Q01DX Z (ip), vehicle: saline).
Regarding `OCCOCCN1CCN(CCCN2c3ccccc3Sc3ccc(C(F)(F)F)cc32)CC1`, the survivor count is on record as 3 of 8 (T/C endpoint: mean survival time, dose: 44.0 mg/kg/injection, schedule: Q04DX003 (ip), vehicle: water); 3 of 8 (T/C endpoint: mean survival time, dose: 66.0 mg/kg/injection, schedule: Q04DX003 (ip), vehicle: water); 1 of 8 (T/C endpoint: mean survival time, dose: 100.0 mg/kg/injection, schedule: Q04DX003 (ip), vehicle: water); 7 of 10 (T/C endpoint: mean survival time, dose: 150.0 mg/kg/injection, schedule: Q04DX003 (ip), vehicle: saline); 3 of 8 (T/C endpoint: mean survival time, dose: 150.0 mg/kg/injection, schedule: Q04DX003 (ip), vehicle: water).
Take `Nc1nc2n[nH]nc2c(=O)[nH]1`: the T/C is 125 % of control (T/C endpoint: mean survival time, dose: 39.0 mg/kg/injection, schedule: Q01DX015 (ip), vehicle: water) and 139 % of control [8 of 9 alive] (T/C endpoint: mean survival time, dose: 61.0 mg/kg/injection, schedule: Q01DX015 (ip), vehicle: water).
As to `CC(=O)c1ccc(NC(=O)N(CCCl)N=O)cc1`, the T/C (T/C endpoint: mean survival time, dose: 112.0 mg/kg/injection, schedule: Q01DX001 (ip), vehicle: carboxymethylcellulose (CMC)) is 127 % of control.
Regarding `CC[n+]1c(-c2ccccc2)c2cc(N)ccc2c2ccc(N)cc21`, where the note is “T/C endpoint: mean survival time, dose: 3.75 mg/kg/injection, schedule: Q01DX Z (ip), vehicle: saline”, the T/C was 134 % of control. Further, the survivor count (T/C endpoint: mean survival time, dose: 30.0 mg/kg/injection, schedule: Q01DX Z (ip), vehicle: saline) was 5 of 6.
As to `CC1CCCC(NC(=O)N(CCCl)N=O)C1` (configuration not stated), the T/C is, setting by setting: (T/C endpoint: mean survival time, dose: 27.0 mg/kg/injection, schedule: Q01DX001 (ip), vehicle: other) 128 % of control; (T/C endpoint: mean survival time, dose: 35.0 mg/kg/injection, schedule: Q01DX001 (ip), vehicle: other) 127 % of control; (T/C endpoint: mean survival time, dose: 143.0 mg/kg/injection, schedule: Q01DX001 (ip), vehicle: other) 135 % of control.
Regarding `COc1cc(NS(C)(=O)=O)ccc1Nc1c2ccccc2nc2c(C)cccc12`, the survivor count reads like this: under setting [1], 7 of 10; (T/C endpoint: mean survival time, dose: 10.0 mg/kg/injection, schedule: Q01DX009 (ip), vehicle: water) 9 of 10 and 10 of 10; (T/C endpoint: mean survival time, dose: 10.0 mg/kg/injection, schedule: Q01DX009 (sc), vehicle: water) 9 of 10; (T/C endpoint: mean survival time, dose: 20.0 mg/kg/injection, schedule: Q01DX009 (ip), vehicle: water) 7 of 10 and 10 of 10; (T/C endpoint: mean survival time, dose: 20.0 mg/kg/injection, schedule: Q01DX009 (sc), vehicle: water) 6 of 10 and 8 of 10.
On to `O=c1[nH]cc(F)c(=O)[nH]1`, for which the T/C is 132 % of control (T/C endpoint: mean survival time, dose: 119.25 mg/kg/injection, schedule: Q01DX001 (ip), vehicle: carboxymethylcellulose (CMC)); 130 % of control (T/C endpoint: mean survival time, dose: 159.0 mg/kg/injection, schedule: Q01DX001 (ip), vehicle: carboxymethylcellulose (CMC)); 128 % of control (T/C endpoint: median survival time, dose: 23.0 mg/kg/injection, schedule: Q01DX009 (ip), vehicle: saline); 142 % of control (T/C endpoint: median survival time, dose: 65.0 mg/kg/injection, schedule: Q04DX003 (ip), vehicle: saline).
As for `CN(N=O)C(=O)Nc1c[nH]c(=O)[nH]c1=O`, the T/C (T/C endpoint: mean survival time, dose: 240.0 mg/kg/injection, schedule: Q01DX001 (ip), vehicle: saline) was 129 % of control.
In the case of `CC1CC(NC(=O)N(CCCl)N=O)CC(C)(C)C1` (configuration not stated), the survivor count (T/C endpoint: mean survival time, dose: 1000.0 mg/kg/injection, schedule: Q01DX001 (ip), vehicle: other) is on record as 4 of 10.
For the compound `O=NN(CCCl)C(=O)NC12CC3CC(CC(C3)C1)C2`, the T/C (T/C endpoint: mean survival time, dose: 60.0 mg/kg/injection, schedule: Q01DX001 (ip), vehicle: carboxymethylcellulose (CMC)) is 130 % of control.
